Values of other authors as cited in paper PMC9505670, “The Effect of Short-Chain Fatty Acids on Growth of Cryptosporidium parvum In Vitro” (Microorganisms, 2022).

System: CpHDAC3
Conditions: recombinant protein; cited from earlier work

For `O=C(CCCCCCC(=O)Nc1ccccc1)NO` [vorinostat], the “inhibition of CpHDAC3” value is given as “have activity”.
